Structures can show the parent of a compound that is named as a salt. Some of the results follow. The calls rarely recur for the same compound in another form.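 In K562 cells expressing nanoluciferase-fused kinases, luminescence was recorded at 4 h intervals between 2 and 18 h, normalized as percent of control with DMSO at 100% and a positive control at 0%. A significant (2 sigma) signal drop marks a time point as decreased. The authors' rule for a hit is not shown and takes in more than the number of time points.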
How the values were obtained:
Assay in all cases: kinase-Nluc reporter destabilization hit call (1 = scored as downregulated) (binary); higher = compound decreases kinase abundance
Conditions in all cases: K562; 2-18 h
ABL1 = ABL1 (UniProt P00519)
AKT1 = AKT1 (UniProt P31749)
ALK = ALK (UniProt Q9UM73)
ARAF = ARAF (UniProt P10398)
AURKA = AURKA (UniProt O14965)
AURKB = AURKB (UniProt Q96GD4)
AURKC = AURKC (UniProt Q9UQB9)
BLK = BLK (UniProt P51451)
BMX = BMX (UniProt P51813)
BRAF = BRAF (UniProt P15056)

Amino acid sequences for entries named in this document (tags omitted). A change or cut given only in a name is not applied to a line headed by its entry.
UniProt P00519, whole entry: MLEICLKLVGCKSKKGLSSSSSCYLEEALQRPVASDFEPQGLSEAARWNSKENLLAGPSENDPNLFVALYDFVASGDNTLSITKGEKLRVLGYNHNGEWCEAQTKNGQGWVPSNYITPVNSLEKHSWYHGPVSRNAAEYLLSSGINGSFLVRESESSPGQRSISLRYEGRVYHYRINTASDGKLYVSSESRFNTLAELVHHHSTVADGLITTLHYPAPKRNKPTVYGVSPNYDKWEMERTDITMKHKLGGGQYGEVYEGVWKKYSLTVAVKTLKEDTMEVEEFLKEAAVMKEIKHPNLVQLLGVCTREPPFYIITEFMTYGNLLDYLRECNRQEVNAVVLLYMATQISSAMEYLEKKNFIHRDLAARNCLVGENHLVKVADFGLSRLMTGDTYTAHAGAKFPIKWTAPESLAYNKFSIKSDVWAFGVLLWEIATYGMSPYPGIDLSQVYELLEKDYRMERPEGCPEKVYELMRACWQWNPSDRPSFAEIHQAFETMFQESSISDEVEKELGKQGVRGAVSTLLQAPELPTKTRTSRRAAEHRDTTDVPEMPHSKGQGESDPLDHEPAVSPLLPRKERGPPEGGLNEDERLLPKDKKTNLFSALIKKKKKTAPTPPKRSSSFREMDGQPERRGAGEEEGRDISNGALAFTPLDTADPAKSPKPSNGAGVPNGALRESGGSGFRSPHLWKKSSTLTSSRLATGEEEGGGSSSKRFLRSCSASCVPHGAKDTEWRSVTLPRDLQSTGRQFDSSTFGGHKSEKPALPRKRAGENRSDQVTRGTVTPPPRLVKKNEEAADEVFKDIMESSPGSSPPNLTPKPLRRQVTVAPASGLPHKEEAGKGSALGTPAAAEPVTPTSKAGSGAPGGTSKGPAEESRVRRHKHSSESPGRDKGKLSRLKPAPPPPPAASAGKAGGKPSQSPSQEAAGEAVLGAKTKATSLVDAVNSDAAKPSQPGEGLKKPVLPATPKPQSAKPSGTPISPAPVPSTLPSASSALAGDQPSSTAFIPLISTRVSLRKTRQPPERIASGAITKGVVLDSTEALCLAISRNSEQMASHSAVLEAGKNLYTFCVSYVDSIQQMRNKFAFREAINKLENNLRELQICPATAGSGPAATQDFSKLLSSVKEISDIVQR
UniProt P31749: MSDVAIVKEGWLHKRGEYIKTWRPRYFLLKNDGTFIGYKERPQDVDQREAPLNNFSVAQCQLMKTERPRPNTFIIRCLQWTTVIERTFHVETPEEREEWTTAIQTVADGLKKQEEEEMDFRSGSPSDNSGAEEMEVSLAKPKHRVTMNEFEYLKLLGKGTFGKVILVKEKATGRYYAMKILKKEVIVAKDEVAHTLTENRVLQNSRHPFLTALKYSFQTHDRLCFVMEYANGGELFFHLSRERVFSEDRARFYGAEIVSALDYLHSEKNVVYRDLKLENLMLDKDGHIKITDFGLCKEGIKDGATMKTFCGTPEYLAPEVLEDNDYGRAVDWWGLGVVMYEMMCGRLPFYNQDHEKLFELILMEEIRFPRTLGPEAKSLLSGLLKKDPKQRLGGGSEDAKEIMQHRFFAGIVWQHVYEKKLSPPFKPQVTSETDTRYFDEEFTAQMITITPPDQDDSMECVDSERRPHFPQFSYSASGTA
UniProt P10398: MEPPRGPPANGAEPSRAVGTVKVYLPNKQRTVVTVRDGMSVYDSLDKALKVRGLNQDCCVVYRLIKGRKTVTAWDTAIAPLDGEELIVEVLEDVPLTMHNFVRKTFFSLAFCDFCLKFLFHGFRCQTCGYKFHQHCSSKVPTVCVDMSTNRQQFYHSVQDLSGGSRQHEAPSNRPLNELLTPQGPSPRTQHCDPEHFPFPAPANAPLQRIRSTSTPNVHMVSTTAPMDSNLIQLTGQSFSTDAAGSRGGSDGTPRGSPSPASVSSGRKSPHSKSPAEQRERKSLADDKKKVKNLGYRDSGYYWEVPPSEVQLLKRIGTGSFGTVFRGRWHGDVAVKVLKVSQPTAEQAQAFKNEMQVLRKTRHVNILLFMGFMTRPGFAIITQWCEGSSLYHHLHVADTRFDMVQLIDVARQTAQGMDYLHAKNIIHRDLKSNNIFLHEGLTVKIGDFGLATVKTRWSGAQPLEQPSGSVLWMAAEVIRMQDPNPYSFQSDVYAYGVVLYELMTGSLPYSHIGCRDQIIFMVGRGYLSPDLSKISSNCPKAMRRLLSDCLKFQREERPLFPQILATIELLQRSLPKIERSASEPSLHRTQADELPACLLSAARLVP
UniProt O14965: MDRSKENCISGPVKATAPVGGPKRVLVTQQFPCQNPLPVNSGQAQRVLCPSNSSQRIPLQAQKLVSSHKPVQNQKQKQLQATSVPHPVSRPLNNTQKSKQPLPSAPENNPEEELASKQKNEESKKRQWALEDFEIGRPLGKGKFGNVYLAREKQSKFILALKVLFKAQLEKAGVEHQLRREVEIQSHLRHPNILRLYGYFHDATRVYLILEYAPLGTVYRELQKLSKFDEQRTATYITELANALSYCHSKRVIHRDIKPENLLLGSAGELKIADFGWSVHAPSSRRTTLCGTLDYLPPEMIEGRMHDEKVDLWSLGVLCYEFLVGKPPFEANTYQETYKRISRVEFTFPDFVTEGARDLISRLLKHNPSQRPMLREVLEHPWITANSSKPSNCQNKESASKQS
UniProt Q96GD4, whole entry: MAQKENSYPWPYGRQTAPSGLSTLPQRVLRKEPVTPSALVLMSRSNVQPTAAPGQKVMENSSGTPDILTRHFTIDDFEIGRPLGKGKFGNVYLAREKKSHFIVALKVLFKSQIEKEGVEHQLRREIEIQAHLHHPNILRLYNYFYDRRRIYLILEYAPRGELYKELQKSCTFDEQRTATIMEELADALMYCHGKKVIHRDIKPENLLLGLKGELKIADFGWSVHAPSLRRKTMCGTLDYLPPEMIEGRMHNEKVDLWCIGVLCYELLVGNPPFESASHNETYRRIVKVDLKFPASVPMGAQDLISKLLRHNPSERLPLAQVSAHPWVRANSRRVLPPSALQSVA
UniProt Q9UQB9: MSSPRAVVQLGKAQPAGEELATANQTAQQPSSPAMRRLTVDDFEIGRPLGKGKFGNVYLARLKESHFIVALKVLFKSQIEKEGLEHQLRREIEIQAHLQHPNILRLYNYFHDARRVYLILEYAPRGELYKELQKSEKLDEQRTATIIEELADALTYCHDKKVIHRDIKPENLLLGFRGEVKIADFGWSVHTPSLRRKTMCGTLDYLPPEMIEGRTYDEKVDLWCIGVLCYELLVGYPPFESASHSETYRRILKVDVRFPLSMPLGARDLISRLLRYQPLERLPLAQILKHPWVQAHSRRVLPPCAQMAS
UniProt P51451: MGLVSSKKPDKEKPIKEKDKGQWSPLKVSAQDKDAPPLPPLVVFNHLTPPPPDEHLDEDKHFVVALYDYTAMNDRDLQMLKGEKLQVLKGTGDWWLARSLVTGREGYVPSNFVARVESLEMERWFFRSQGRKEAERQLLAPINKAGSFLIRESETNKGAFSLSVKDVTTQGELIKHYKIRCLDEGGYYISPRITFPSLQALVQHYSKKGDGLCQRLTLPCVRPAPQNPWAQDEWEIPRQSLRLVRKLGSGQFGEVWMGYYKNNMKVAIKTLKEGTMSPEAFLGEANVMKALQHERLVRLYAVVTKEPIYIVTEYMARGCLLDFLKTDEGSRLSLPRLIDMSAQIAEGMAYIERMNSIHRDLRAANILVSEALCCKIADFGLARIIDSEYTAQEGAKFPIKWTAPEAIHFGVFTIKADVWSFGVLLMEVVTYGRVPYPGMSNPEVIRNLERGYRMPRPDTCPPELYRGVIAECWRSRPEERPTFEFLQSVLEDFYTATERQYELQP
UniProt P51813: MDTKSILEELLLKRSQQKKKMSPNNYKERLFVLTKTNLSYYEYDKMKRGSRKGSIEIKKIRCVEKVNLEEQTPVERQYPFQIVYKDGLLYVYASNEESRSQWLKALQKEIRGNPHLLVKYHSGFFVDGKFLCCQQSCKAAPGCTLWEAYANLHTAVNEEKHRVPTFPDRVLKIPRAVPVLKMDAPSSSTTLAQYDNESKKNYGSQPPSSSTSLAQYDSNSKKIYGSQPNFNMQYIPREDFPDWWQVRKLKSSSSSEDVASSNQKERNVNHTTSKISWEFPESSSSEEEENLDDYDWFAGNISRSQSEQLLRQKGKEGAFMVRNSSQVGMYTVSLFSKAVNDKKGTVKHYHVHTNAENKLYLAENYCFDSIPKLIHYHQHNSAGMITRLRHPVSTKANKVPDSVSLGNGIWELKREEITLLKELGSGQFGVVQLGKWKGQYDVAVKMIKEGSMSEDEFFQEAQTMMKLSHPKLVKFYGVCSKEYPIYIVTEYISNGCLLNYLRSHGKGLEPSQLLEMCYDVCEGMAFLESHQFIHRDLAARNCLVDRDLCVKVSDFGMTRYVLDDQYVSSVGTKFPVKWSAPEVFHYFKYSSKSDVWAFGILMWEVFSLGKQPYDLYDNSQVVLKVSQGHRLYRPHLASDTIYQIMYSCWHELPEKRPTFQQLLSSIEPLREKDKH
UniProt P15056, whole entry, looked up: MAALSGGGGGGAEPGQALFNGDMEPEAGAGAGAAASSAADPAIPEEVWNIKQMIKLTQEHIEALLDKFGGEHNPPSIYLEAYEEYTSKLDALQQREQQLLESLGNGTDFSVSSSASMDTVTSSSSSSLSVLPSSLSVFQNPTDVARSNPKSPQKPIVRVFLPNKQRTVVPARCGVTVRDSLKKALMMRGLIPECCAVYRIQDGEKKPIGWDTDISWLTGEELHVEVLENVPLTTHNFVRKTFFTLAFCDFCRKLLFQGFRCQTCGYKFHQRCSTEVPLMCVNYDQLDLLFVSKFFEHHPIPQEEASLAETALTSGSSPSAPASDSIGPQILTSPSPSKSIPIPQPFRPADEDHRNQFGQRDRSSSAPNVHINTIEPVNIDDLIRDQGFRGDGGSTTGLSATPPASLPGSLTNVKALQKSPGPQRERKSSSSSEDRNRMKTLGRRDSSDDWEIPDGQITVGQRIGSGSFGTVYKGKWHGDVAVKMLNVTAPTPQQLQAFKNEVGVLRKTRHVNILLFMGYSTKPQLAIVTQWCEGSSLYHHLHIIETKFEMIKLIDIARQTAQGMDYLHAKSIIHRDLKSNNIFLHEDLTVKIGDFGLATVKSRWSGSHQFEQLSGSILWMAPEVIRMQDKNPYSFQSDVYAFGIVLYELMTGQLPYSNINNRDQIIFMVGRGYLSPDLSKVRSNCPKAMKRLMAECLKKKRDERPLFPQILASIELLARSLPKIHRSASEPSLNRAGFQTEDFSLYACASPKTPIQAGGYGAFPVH

Measured: kinase-Nluc reporter destabilization hit call

Cc1cc(C)cc(NC(N)=Nc2ccccc2C(F)(F)F)c1 (10 µM)
inactive: ABL1 = 0 | AKT1 = 0 | ALK 0 | ARAF 0 | AURKA 0 | AURKB 0 | AURKC 0 | BLK 0 | BMX 0 | BRAF 0

CC1(N)CCN(c2cccnc2NC(=O)c2nc(-c3ncccc3C(F)(F)F)cnc2N)CC1 [Darovasertib] (10 µM)
inactive: ABL1 = 0 | AKT1 = 0 | ALK 0 | ARAF 0 | AURKA 0 | AURKB 0 | AURKC 0 | BLK 0 | BMX 0 | BRAF 0

CCNC(=O)C#Cc1ccc2c(C(=Nc3ccc(CN(C)C)cc3)c3ccccc3)c(O)[nH]c2c1 (2.5 µM)
inactive: ABL1 = 0 | AKT1 = 0 | ALK 0 | ARAF 0 | AURKA 0 | AURKB 0 | AURKC 0 | BLK 0 | BMX 0 | BRAF 0

Cc1ccc(C)c(OCCn2cc(C(=O)O)c3ccccc32)c1 (10 µM)
inactive: ABL1 = 0 | AKT1 = 0 | ALK 0 | ARAF 0 | AURKA 0 | AURKB 0 | AURKC 0 | BLK 0 | BMX 0 | BRAF 0

COc1cc2c(cc1OC)/C(=C/c1ccc(O)cc1)C(=O)N2 (10 µM)
inactive: ABL1 = 0 | AKT1 = 0 | ALK 0 | ARAF 0 | AURKA 0 | AURKB 0 | AURKC 0 | BLK 0 | BMX 0 | BRAF 0

CC(Cc1ccc(O)c(O)c1)C(C)Cc1ccc(O)c(O)c1 (stereo not given) [Nordihydroguaiaretic acid] (2.5 µM)
inactive: ABL1 = 0 | AKT1 = 0 | ALK 0 | ARAF 0 | AURKA 0 | AURKB 0 | AURKC 0 | BLK 0 | BMX 0 | BRAF 0

Cn1c(CNc2cccc(C(=O)NCc3ccccc3C(F)(F)F)c2)nnc1-c1ccncc1 (10 µM)
inactive: ABL1 = 0 | AKT1 = 0 | ALK 0 | ARAF 0 | AURKA 0 | AURKB 0 | AURKC 0 | BLK 0 | BMX 0 | BRAF 0

Cc1cc(CSc2ccccc2C(=O)NCCNc2ccc(C(F)(F)F)cc2[N+](=O)[O-])on1 (10 µM)
inactive: ABL1 = 0 | AKT1 = 0 | ALK 0 | ARAF 0 | AURKA 0 | AURKB 0 | AURKC 0 | BLK 0 | BMX 0 | BRAF 0

Oc1c(F)cc(-c2cnccc2-c2ccc(N3CCOCC3)cc2)cc1F (10 µM)
inactive: ABL1 = 0 | AKT1 = 0 | ALK 0 | ARAF 0 | AURKA 0 | AURKB 0 | AURKC 0 | BLK 0 | BMX 0 | BRAF 0

NC(=O)c1ccc(N(C(N)=O)c2c(F)cccc2F)nc1-c1ccc(F)cc1F (10 µM)
inactive: ABL1 = 0 | AKT1 = 0 | ALK 0 | ARAF 0 | AURKA 0 | AURKB 0 | AURKC 0 | BLK 0 | BMX 0 | BRAF 0

Three compounds already listed, ordered by molecular weight, smallest number first:
CC(Cc1ccc(O)c(O)c1)C(C)Cc1ccc(O)c(O)c1 (stereo not given) [Nordihydroguaiaretic acid] (2.5 µM)
inactive: ABL1 = 0 | AKT1 = 0 | ALK 0 | ARAF 0 | AURKA 0 | AURKB 0 | AURKC 0 | BLK 0 | BMX 0 | BRAF 0

NC(=O)c1ccc(N(C(N)=O)c2c(F)cccc2F)nc1-c1ccc(F)cc1F (10 µM)
inactive: ABL1 = 0 | AKT1 = 0 | ALK 0 | ARAF 0 | AURKA 0 | AURKB 0 | AURKC 0 | BLK 0 | BMX 0 | BRAF 0

Cc1cc(CSc2ccccc2C(=O)NCCNc2ccc(C(F)(F)F)cc2[N+](=O)[O-])on1 (10 µM)
inactive: ABL1 = 0 | AKT1 = 0 | ALK 0 | ARAF 0 | AURKA 0 | AURKB 0 | AURKC 0 | BLK 0 | BMX 0 | BRAF 0

(cont.)

CCN1CCN(Cc2cnc(Nc3cc(-c4cc(F)c5nc(C)n(C(C)C)c5c4)c(F)cn3)nc2)CC1 (10 µM)
inactive: ABL1 = 0 | AKT1 = 0 | ALK 0 | ARAF 0 | AURKA 0 | AURKB 0 | AURKC 0 | BLK 0 | BMX 0 | BRAF 0

Cc1ccc(C(=O)NC2CC2)cc1-n1ncc(C(=O)c2cccc(C#N)c2)c1N [Acumapimod] (10 µM)
inactive: ABL1 = 0 | AKT1 = 0 | ALK 0 | ARAF 0 | AURKA 0 | AURKB 0 | AURKC 0 | BLK 0 | BMX 0 | BRAF 0

CCCCCc1ccc(/C=C/[C@H](O)[C@@H](CO)NC)cc1 [SK1-I (hydrochloride)] (10 µM)
inactive: ABL1 = 0 | AKT1 = 0 | ALK 0 | ARAF 0 | AURKA 0 | AURKB 0 | AURKC 0 | BLK 0 | BMX 0 | BRAF 0

O=C(Nc1cc(Cl)cc2c1[nH]c1cnccc12)c1cccnc1 (10 µM)
inactive: ABL1 = 0 | AKT1 = 0 | ALK 0 | ARAF 0 | AURKA 0 | AURKB 0 | AURKC 0 | BLK 0 | BMX 0 | BRAF 0

Source: the supplement of paper PMC12823440, “Inhibitors supercharge kinase turnover through native proteolytic circuits” (Nature, 2025)
